Results on 20 molecules are retold here after PMC4330386 (Nucleic Acids Research, 2015).

T1: GST-Rad27 (yeast, UniProt P26793 1-382)
T1 sequence (looked up): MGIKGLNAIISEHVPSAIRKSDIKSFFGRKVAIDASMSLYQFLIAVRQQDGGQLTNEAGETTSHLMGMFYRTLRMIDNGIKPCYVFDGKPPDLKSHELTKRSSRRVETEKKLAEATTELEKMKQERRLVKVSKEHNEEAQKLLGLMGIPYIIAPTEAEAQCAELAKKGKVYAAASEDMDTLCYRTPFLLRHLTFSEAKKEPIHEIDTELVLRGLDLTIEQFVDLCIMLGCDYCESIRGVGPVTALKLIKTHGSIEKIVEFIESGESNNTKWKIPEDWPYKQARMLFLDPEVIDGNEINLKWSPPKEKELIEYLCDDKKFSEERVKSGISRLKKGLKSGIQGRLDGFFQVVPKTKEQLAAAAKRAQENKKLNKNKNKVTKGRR

B1: Mus81-NF107 (domain or fragment, UniProt Q04149 1-107)
chain: MELSSNLKDLYIEWLQELVDGLTPKQEQLKIAYEKAKRNLQNAEGSFYYPTDLKKVKGIGNTIIKRLDTKLRNYCKIHHISPVEAPSLTQTSSTRPPKRTTTALRSI
B2: Mus81-NF27–120 (domain or fragment, UniProt Q04149 27-120)
chain: EQLKIAYEKAKRNLQNAEGSFYYPTDLKKVKGIGNTIIKRLDTKLRNYCKIHHISPVEAPSLTQTSSTRPPKRTTTALRSIVNSCENDKNEAPE
B3: Mus81-NF120_(Δ21–26) (domain or fragment, UniProt Q04149)
chain: MELSSNLKDLYIEWLQELVDEQLKIAYEKAKRNLQNAEGSFYYPTDLKKVKGIGNTIIKRLDTKLRNYCKIHHISPVEAPSLTQTSSTRPPKRTTTALRSIVNSCENDKNEAPE
B4: Mus81-6XHis (full-length Mus81 subunit) (protein, UniProt Q04149 1-632)
chain: MELSSNLKDLYIEWLQELVDGLTPKQEQLKIAYEKAKRNLQNAEGSFYYPTDLKKVKGIGNTIIKRLDTKLRNYCKIHHISPVEAPSLTQTSSTRPPKRTTTALRSIVNSCENDKNEAPEEKGTKKRKTRKYIPKKRSGGYAILLSLLELNAIPRGVSKEQIIEVAGKYSDHCMTPNFSTKEFYGAWSSIAALKKHSLVLEEGRPKRYSLTEEGVELTKSLKTADGISFPKENEEPNEYSVTRNESSEFTANLTDLRGEYGKEEEPCDINNTSFMLDITFQDLSTPQRLQNNVFKNDRLNSQTNISSHKLEEVSDDQTVPDSALKAKSTIKRRRYNGVSYELWCSGDFEVFPIIDHREIKSQSDREFFSRAFERKGMKSEIRQLALGDIIWVAKNKNTGLQCVLNTIVERKRLDDLALSIRDNRFMEQKNRLEKSGCEHKYYLIEETMSGNIGNMNEALKTALWVILVYYKFSMIRTCNSDETVEKIHALHTVISHHYSQKDLIVIFPSDLKSKDDYKKVLLQFRREFERKGGIECCHNLECFQELMGKGDLKTVGELTIHVLMLVKGISLEKAVAIQEIFPTLNKILMAYKTCSSEEEAKLLMFNVLGDAPGAKKITKSLSEKIYDAFGKL
B5: Mus81-NF120T23 (domain or fragment, UniProt Q04149 1-120)
chain: MELSSNLKDLYIEWLQELVDGLAPKQEQLKIAYEKAKRNLQNAEGSFYYPTDLKKVKGIGNTIIKRLDTKLRNYCKIHHISPVEAPSLTQTSSTRPPKRTTTALRSIVNSCENDKNEAPE
B6: Mus81-NF120SCE (domain or fragment, UniProt Q04149 1-120)
chain: MELSSNLKDLYIEWLQELVDGLTPKQEQLKIAYEKAKRNLQNAEGSFYYPTDLKKVKGIGNTIIKRLDTKLRNYCKIHHISPVEAPSLTQTSSTRPPKRTTTALRSIVNAAANDKNEAPE
B7: Mus81-NF120 (the N-terminal 120 aa fragment of Mus81) (domain or fragment, UniProt Q04149 1-120)
chain: MELSSNLKDLYIEWLQELVDGLTPKQEQLKIAYEKAKRNLQNAEGSFYYPTDLKKVKGIGNTIIKRLDTKLRNYCKIHHISPVEAPSLTQTSSTRPPKRTTTALRSIVNSCENDKNEAPE
B8: Mus81-NF120END (domain or fragment, UniProt Q04149 1-120)
chain: MELSSNLKDLYIEWLQELVDGLTPKQEQLKIAYEKAKRNLQNAEGSFYYPTDLKKVKGIGNTIIKRLDTKLRNYCKIHHISPVEAPSLTQTSSTRPPKRTTTALRSIVNSCAAAKNEAPE
B9: Mus81-NF21–120 (domain or fragment, UniProt Q04149 21-120)
chain: GLTPKQEQLKIAYEKAKRNLQNAEGSFYYPTDLKKVKGIGNTIIKRLDTKLRNYCKIHHISPVEAPSLTQTSSTRPPKRTTTALRSIVNSCENDKNEAPE
B10: Mus81-NF120_(Δ21–24) (domain or fragment, UniProt Q04149)
chain: MELSSNLKDLYIEWLQELVDKQEQLKIAYEKAKRNLQNAEGSFYYPTDLKKVKGIGNTIIKRLDTKLRNYCKIHHISPVEAPSLTQTSSTRPPKRTTTALRSIVNSCENDKNEAPE
B11: Mus81-NF41–120 (domain or fragment, UniProt Q04149 41-120)
chain: QNAEGSFYYPTDLKKVKGIGNTIIKRLDTKLRNYCKIHHISPVEAPSLTQTSSTRPPKRTTTALRSIVNSCENDKNEAPE
B12: Mus81-NF114 (domain or fragment, UniProt Q04149 1-114)
chain: MELSSNLKDLYIEWLQELVDGLTPKQEQLKIAYEKAKRNLQNAEGSFYYPTDLKKVKGIGNTIIKRLDTKLRNYCKIHHISPVEAPSLTQTSSTRPPKRTTTALRSIVNSCEND
B13: Mus81_(Δ120N) (the mutant Mus81 subunit devoid of the N-terminal 120 aa residues) (domain or fragment, UniProt Q04149 121-632)
chain: EKGTKKRKTRKYIPKKRSGGYAILLSLLELNAIPRGVSKEQIIEVAGKYSDHCMTPNFSTKEFYGAWSSIAALKKHSLVLEEGRPKRYSLTEEGVELTKSLKTADGISFPKENEEPNEYSVTRNESSEFTANLTDLRGEYGKEEEPCDINNTSFMLDITFQDLSTPQRLQNNVFKNDRLNSQTNISSHKLEEVSDDQTVPDSALKAKSTIKRRRYNGVSYELWCSGDFEVFPIIDHREIKSQSDREFFSRAFERKGMKSEIRQLALGDIIWVAKNKNTGLQCVLNTIVERKRLDDLALSIRDNRFMEQKNRLEKSGCEHKYYLIEETMSGNIGNMNEALKTALWVILVYYKFSMIRTCNSDETVEKIHALHTVISHHYSQKDLIVIFPSDLKSKDDYKKVLLQFRREFERKGGIECCHNLECFQELMGKGDLKTVGELTIHVLMLVKGISLEKAVAIQEIFPTLNKILMAYKTCSSEEEAKLLMFNVLGDAPGAKKITKSLSEKIYDAFGKL
B14: Mus81-NF100 (domain or fragment, UniProt Q04149 1-100)
chain: MELSSNLKDLYIEWLQELVDGLTPKQEQLKIAYEKAKRNLQNAEGSFYYPTDLKKVKGIGNTIIKRLDTKLRNYCKIHHISPVEAPSLTQTSSTRPPKRT
B15: Mus81-NF474 (domain or fragment, UniProt Q04149 1-474)
chain: MELSSNLKDLYIEWLQELVDGLTPKQEQLKIAYEKAKRNLQNAEGSFYYPTDLKKVKGIGNTIIKRLDTKLRNYCKIHHISPVEAPSLTQTSSTRPPKRTTTALRSIVNSCENDKNEAPEEKGTKKRKTRKYIPKKRSGGYAILLSLLELNAIPRGVSKEQIIEVAGKYSDHCMTPNFSTKEFYGAWSSIAALKKHSLVLEEGRPKRYSLTEEGVELTKSLKTADGISFPKENEEPNEYSVTRNESSEFTANLTDLRGEYGKEEEPCDINNTSFMLDITFQDLSTPQRLQNNVFKNDRLNSQTNISSHKLEEVSDDQTVPDSALKAKSTIKRRRYNGVSYELWCSGDFEVFPIIDHREIKSQSDREFFSRAFERKGMKSEIRQLALGDIIWVAKNKNTGLQCVLNTIVERKRLDDLALSIRDNRFMEQKNRLEKSGCEHKYYLIEETMSGNIGNMNEALKTALWVILVYYKFSM
B16: Mus81-NF34–120 (domain or fragment, UniProt Q04149 34-120)
chain: EKAKRNLQNAEGSFYYPTDLKKVKGIGNTIIKRLDTKLRNYCKIHHISPVEAPSLTQTSSTRPPKRTTTALRSIVNSCENDKNEAPE
B17: Mus81-NF158 (domain or fragment, UniProt Q04149 1-158)
chain: MELSSNLKDLYIEWLQELVDGLTPKQEQLKIAYEKAKRNLQNAEGSFYYPTDLKKVKGIGNTIIKRLDTKLRNYCKIHHISPVEAPSLTQTSSTRPPKRTTTALRSIVNSCENDKNEAPEEKGTKKRKTRKYIPKKRSGGYAILLSLLELNAIPRGVS
B18: Mus81-NF80 (domain or fragment, UniProt Q04149 1-80)
chain: MELSSNLKDLYIEWLQELVDGLTPKQEQLKIAYEKAKRNLQNAEGSFYYPTDLKKVKGIGNTIIKRLDTKLRNYCKIHHI
B19: Mus81-NF316 (domain or fragment, UniProt Q04149 1-316)
chain: MELSSNLKDLYIEWLQELVDGLTPKQEQLKIAYEKAKRNLQNAEGSFYYPTDLKKVKGIGNTIIKRLDTKLRNYCKIHHISPVEAPSLTQTSSTRPPKRTTTALRSIVNSCENDKNEAPEEKGTKKRKTRKYIPKKRSGGYAILLSLLELNAIPRGVSKEQIIEVAGKYSDHCMTPNFSTKEFYGAWSSIAALKKHSLVLEEGRPKRYSLTEEGVELTKSLKTADGISFPKENEEPNEYSVTRNESSEFTANLTDLRGEYGKEEEPCDINNTSFMLDITFQDLSTPQRLQNNVFKNDRLNSQTNISSHKLEEVSDD
B20: Mus81-NF120_(Δ21–22) (domain or fragment, UniProt Q04149 1-120)
chain: MELSSNLKDLYIEWLQELVDTPKQEQLKIAYEKAKRNLQNAEGSFYYPTDLKKVKGIGNTIIKRLDTKLRNYCKIHHISPVEAPSLTQTSSTRPPKRTTTALRSIVNSCENDKNEAPE

No constants are given. Whether binding was seen depends on the method and setting. In cells and extracts the contact can be indirect. Some entries that bind do so weakly or less than the wild type. Sequences can lack the tags named with a protein.

The target in this assay is T1, GST-Rad27. Description: pull-down; crude E. coli extracts with GST-Rad27 and Mus81-6XHis derivatives (10 pmol each) mixed with glutathione-agarose beads; 25-mM Tris-HCl/pH 8.0, 100-mM NaCl, 10% glycerol, 0.1% NP-40; 4°C, 2 h; western blotting with anti-6XHis or anti-GST. (In western blotting, separated proteins are transferred to a membrane and probed.)
As to B1, the binding entry is on record as “binds weakly”.

For the molecule B2, the binding entry is recorded as “no binding (tested: 10 pmol each)”.

With B3, the binding result was “binds weakly”. Take B4: the binding entry is “binds”. The result for B5 reads “binds”; that for B6, “binds”. The result for B7 reads “binds”; that for B8, “binds”. The result for B9 reads “binds”; that for B10, “binds”. B11: the binding result is “no binding (tested: 10 pmol each)”. The result for B12 reads “binds”. The result for B13 reads “no binding (tested: 10 pmol each)”; that for B14, “binds weakly”; that for B15, “binds”. The result for B16 reads “no binding (tested: 10 pmol each)”; that for B17, “binds”. Take B18: the binding entry is recorded as “no binding (tested: 10 pmol each)”. The result for B19 reads “binds”; that for B20, “binds”.
